Experimental data taken from article PMC8625065 (Molecules, 2021).
Where a name gives a salt, the structure may show the parent alone. Some entries repeat one wording, which the source may state once for all of them.

Assays:
AU-RNA (poly A-poly U) = experiment: CD titration and thermal melting, binding mode; details: CD titrations and thermal melting, pH 7
AT-DNA (poly (dAdT)2) = experiment: CD titration and thermal melting, binding mode; details: CD titrations and thermal melting, pH 7
p(dAdT)2 (AT-DNA) = experiment: Fluorimetric titration, Scatchard processing; assay type: binding; details: for I/I0 (fluorescence intensity of complex / starting intensity of compound): p(dAdT)2, pH 7.0, calculated by Scatchard equation; for ratio n (bound compound/polynucleotide phosphate): p(dAdT)2, pH 7.0, sodium cacodylate buffer
Experimental: (§1) Compound solutions were used for measurements in aqueous buffer (pH = 7, sodium cacodylate buffer, I = 0.05 mol dm^−3). Polynucleotides were purchased as noted: poly A-poly U, poly (dAdT)2 and calf thymus (ct)DNA (Sigma-Aldrich). Polynucleotides were dissolved in Na-cacodylate buffer, I = 0.05 mol dm^−3, pH = 7. The calf thymus ctDNA was additionally sonicated and filtered through a […]. Polynucleotide concentration was determined spectroscopically as the concentration of phosphates.
(§2) Fluorescence spectra were recorded on a Varian Cary Eclipse spectrophotometer at 25 °C using appropriate 1cm path quartz cuvettes. Fluorometric experiments were performed at pH = 7 (I = 0.05 mol dm^−3, sodium cacodylate buffer) by adding portions of polynucleotide solution into the solution of the studied compound. In fluorometric experiments, an excitation wavelength of λexc ≥ 300 nm was used to avoid the inner filter effect caused due to increasing absorbance of the polynucleotide. Emissions were determined in the range λem = 300–600 nm. Values for Ks obtained by processing titration data using the Scatchard equation [40], in most titrations have satisfactory correlation coefficients (≥0.98).

poly A-poly U (AU-RNA) = experiment: Fluorimetric titration, Scatchard processing; assay type: binding; details: for I/I0 (fluorescence intensity of complex / starting intensity of compound): pH 7.0, calculated by Scatchard equation; for ratio n (bound compound/polynucleotide phosphate): pH 7.0, sodium cacodylate buffer
Experimental: as §1, §2

ctDNA (calf thymus DNA) = experiment: Fluorimetric titration, Scatchard processing; assay type: binding; details: for I/I0 (fluorescence intensity of complex / starting intensity of compound): pH 7.0, calculated by Scatchard equation; for ratio n (bound compound/polynucleotide phosphate): pH 7.0, sodium cacodylate buffer
Experimental: as §1, §2

[1] = tested on: SW620 (colorectal adenocarcinoma, metastatic); experiment: MTT proliferation assay, 72 h; assay type: cell-based, human
Experimental: The cell lines HeLa (cervical carcinoma), SW620 (colorectal adenocarcinoma, metastatic), A549 (lung adenocarcinoma), HepG2 (hepatocellular carcinoma) and HFF (human foreskin fibroblasts) were cultured as monolayers and maintained in Dulbecco’s modified Eagle medium (DMEM), supplemented with 10% fetal bovine serum (FBS), 2mM L-glutamine, 100 U/mL penicillin and 100 μg/mL streptomycin in a humidified atmosphere with 5% CO2 at 37 °C.
Cells were seeded onto 96-well microtiter plates at a seeding density of 3000 cells/well for carcinoma cell lines, and 5000 cells/well for normal human fibroblasts. The next day, cells were treated with test agents at five different concentrations (0.01–100 µM) and further incubated for 72 h. […] Following 72 h incubation, the MTT assay was performed and measured absorbances were transformed into percentage of cell growth as described previously. Results were obtained from three independent experiments.

Row | SMILES | binding mode to AU-RNA (AU-RNA (poly A-poly U)) | binding mode to AT-DNA (AT-DNA (poly (dAdT)2)) | I/I0 (fluorescence intensity of complex / starting intensity of compound) (p(dAdT)2 (AT-DNA)) | ratio n (bound compound/polynucleotide phosphate) (p(dAdT)2 (AT-DNA)) | I/I0 (fluorescence intensity of complex / starting intensity of compound) (poly A-poly U (AU-RNA)) | ratio n (bound compound/polynucleotide phosphate) (poly A-poly U (AU-RNA)) | I/I0 (fluorescence intensity of complex / starting intensity of compound) (ctDNA (calf thymus DNA)) | ratio n (bound compound/polynucleotide phosphate) (ctDNA (calf thymus DNA)) | fold stronger inhibitory effect compared to structural analogue 8 ([1]; printed 'to tumor cells', ratio matches SW620 IC50 values) | fold more active compared to monoamidoxime 19 ([1]; SW620 cells)
1 | Cl.Cl.c1cc(C2=NCCN2)ccc1OCc1cn(-c2ccc(C3=NCCN3)cc2)nn1 [Compound 5, 1-(4-(4,5-Dihydro-1H-imidazol-2-yl)-phenyl]-4-((4-(4,5-dihydro-1H-imidazol-2-yl)phenyloxy)methyl]-1H-1,2,3-triazole dihydrochloride] | intercalate | bind inside the minor groove | 2.2 | <0.1 | 2.0 | 0.7 | 2.0 | 0.1 |  | 
2 | c1cc(C2=NCCN2)c2ccn(Cc3cn(-c4ccc(C5=NCCN5)cc4)nn3)c2c1 [Compound 6, 1-((1-(4-(Dihydro-1H-imidazol-2-yl)phenyl)-1H-1,2,3-triazol-4-yl)methyl)-4-(dihydro-1H-imidazol-2-yl)-1H-indole dihydrochloride] |  | mixed binding mode, most probably minor groove binding accompanied with aggregate binding along the DNA backbone | 0.9 | 0.1 | 0.1 | 0.6 | 0.8 | 0.7 |  | 
3 | Cl.c1cnc2c(NCc3cn(-c4ccc(C5=NCCN5)cc4)nn3)cccc2c1 [Compound 8, 8-(((1-(4-(4,5-Dihydro-1H-imidazol-2-yl)phenyl)-1H-1,2,3-triazol-4-yl)methyl)amino)-quinoline hydrochloride] |  |  | 2.3 | 0.5 |  |  |  |  |  | 
4 | Cl.c1cnc2c(OCc3cn(-c4ccc(C5=NCCN5)cc4)nn3)cccc2c1 [Compound 9, 8-((1-(4-(4,5-Dihydro-1H-imidazol-2-yl)phenyl)-1H-1,2,3-triazol-4-yl)methyloxy)-quinoline hydrochloride] |  | mixed binding mode, most probably minor groove binding accompanied with aggregate binding along the DNA backbone | 0.2 | 0.1 | <0.1 | <0.1 | 0.5 | 0.3 | 13 fold | 
5 | Cl.O=c1cc(OCc2cn(-c3ccc(C4=NCCN4)cc3)nn2)c2ccccc2o1 [Compound 10, 4-((1-(4-(4,5-Dihydro-1H-imidazol-2-yl)phenyl)-1H-1,2,3-triazol-4-yl)methyloxy)-coumarin hydrochloride] | intercalate | bind inside the minor groove | 1.3 | 0.8 |  |  |  |  |  | 
6 | Cl.O=c1ccc2ccc(OCc3cn(-c4ccc(C5=NCCN5)cc4)nn3)cc2o1 [Compound 11, 7-((1-(4-(4,5-Dihydro-1H-imidazol-2-yl)phenyl)-1H-1,2,3-triazol-4-yl)methyloxy)-coumarin hydrochloride] | intercalative binding mode | mixed binding mode, most probably minor groove binding accompanied with aggregate binding along the DNA backbone | 0.6 | 0.2 | 0.7 | 0.2 | 0.5 | 0.2 |  | 
7 | N/C(=N\O)c1ccc(-n2cc(COc3cccc4ccc(/C(N)=N/O)nc34)nn2)cc1 [Compound 20, (Z)-N′-Hydroxy-8-((1-(4-((Z)-N′-hydroxycarbamimidoyl)phenyl)-1H-1,2,3-triazol-4-yl)methoxy)quinoline-2-carboximidamide] |  |  |  | 0.1 |  | 0.1 |  | 0.2 |  | around 9 fold
